{
  "source": "patent US10620188B2",
  "about": "“Using impedance-based cell response profiling to identify putative inhibitors for oncogene addicted targets or pathways” (ACEA Biosciences, Inc., priority 2002, dated 2020)",
  "key": {"[1]": {"test_system": "10T1/2 tva-H1047R", "assay": "Impedance-based TCRP of 10T1/2 tva-H1047R cells expressing human p110α (H1047R)", "type": "cell-based, mouse", "conditions": "serum starved, from 0 to 10 uM"}, "[2]": {"test_system": "10T1/2 tva", "assay": "Impedance-based TCRP of control cell line 10T1/2 tva", "parameters": "species or system mouse", "conditions": "10T1/2 tva control cell line; from 0 to 10 uM"}},
  "note": "At least one compound was matched to its structure with a doubt left.",
  "data": [
    {"smiles": "C[C@]12O[C@H](C[C@]1(O)CO)n1c3ccccc3c3c4c(c5c6ccccc6n2c5c31)CNC4=O", "note": "[lestaurtinib]", "values": [
      {"measurement": "TCRP (Cell Index response)", "setting": "[1]", "value": "cell index decreases in both the control cell line and H1047R cell line"},
      {"measurement": "TCRP (Cell Index response)", "setting": "[2]", "value": "cell index decreases in both the control cell line and H1047R cell line"}
    ]}
  ]
}
